Data: publication PMC10959415
No constants are given. Whether binding was seen depends on the method and setting. Binding seen in cells or lysates may run through a third protein. A yes stands for co-enrichment or nearness to the bait. Other partners may have been found. For some assays here: Where a sequence is shown, tags or fusion partners need not be part of it.

Amino acid sequences for entries named in this document (tags omitted).
UniProt O09106: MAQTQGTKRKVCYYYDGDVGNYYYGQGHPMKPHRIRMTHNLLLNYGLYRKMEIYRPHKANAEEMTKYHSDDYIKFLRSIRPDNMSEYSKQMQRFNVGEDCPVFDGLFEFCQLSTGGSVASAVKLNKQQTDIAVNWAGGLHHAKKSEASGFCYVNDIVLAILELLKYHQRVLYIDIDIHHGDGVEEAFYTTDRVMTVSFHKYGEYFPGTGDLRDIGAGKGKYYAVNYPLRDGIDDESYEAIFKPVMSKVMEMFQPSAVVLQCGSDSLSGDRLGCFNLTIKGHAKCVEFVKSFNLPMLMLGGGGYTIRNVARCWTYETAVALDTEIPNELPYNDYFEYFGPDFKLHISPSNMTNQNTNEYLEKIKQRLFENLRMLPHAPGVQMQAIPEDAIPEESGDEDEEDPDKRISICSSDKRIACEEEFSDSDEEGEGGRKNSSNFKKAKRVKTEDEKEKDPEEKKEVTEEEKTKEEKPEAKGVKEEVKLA
UniProt Q9WV02: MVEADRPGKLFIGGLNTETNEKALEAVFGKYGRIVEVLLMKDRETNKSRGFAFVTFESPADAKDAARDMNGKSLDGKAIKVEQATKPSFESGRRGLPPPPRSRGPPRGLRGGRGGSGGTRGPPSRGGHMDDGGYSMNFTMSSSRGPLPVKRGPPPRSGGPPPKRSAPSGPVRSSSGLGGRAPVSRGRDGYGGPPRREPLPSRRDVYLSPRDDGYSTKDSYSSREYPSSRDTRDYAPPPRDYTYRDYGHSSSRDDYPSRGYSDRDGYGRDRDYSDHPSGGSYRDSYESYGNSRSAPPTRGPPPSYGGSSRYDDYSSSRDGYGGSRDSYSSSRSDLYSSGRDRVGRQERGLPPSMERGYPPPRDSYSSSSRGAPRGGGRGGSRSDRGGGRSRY
UniProt P42227: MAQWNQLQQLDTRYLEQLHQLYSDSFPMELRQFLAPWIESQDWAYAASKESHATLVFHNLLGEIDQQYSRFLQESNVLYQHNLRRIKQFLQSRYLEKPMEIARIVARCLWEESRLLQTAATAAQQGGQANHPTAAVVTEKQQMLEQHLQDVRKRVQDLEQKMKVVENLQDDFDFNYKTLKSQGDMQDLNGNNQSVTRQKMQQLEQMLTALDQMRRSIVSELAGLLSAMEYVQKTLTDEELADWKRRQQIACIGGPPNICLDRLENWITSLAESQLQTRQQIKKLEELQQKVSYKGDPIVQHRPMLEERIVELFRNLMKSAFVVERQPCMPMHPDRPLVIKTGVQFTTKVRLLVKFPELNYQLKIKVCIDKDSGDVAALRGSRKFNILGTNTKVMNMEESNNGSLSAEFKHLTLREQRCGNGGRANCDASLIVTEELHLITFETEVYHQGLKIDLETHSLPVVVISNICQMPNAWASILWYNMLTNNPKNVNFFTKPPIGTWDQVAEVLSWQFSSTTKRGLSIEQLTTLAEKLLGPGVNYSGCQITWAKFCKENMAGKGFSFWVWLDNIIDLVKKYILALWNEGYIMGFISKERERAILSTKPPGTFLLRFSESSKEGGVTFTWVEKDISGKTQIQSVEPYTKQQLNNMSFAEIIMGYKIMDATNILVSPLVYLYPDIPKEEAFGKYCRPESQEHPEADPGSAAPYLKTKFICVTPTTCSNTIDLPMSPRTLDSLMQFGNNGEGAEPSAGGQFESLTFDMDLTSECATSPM
UniProt P19091: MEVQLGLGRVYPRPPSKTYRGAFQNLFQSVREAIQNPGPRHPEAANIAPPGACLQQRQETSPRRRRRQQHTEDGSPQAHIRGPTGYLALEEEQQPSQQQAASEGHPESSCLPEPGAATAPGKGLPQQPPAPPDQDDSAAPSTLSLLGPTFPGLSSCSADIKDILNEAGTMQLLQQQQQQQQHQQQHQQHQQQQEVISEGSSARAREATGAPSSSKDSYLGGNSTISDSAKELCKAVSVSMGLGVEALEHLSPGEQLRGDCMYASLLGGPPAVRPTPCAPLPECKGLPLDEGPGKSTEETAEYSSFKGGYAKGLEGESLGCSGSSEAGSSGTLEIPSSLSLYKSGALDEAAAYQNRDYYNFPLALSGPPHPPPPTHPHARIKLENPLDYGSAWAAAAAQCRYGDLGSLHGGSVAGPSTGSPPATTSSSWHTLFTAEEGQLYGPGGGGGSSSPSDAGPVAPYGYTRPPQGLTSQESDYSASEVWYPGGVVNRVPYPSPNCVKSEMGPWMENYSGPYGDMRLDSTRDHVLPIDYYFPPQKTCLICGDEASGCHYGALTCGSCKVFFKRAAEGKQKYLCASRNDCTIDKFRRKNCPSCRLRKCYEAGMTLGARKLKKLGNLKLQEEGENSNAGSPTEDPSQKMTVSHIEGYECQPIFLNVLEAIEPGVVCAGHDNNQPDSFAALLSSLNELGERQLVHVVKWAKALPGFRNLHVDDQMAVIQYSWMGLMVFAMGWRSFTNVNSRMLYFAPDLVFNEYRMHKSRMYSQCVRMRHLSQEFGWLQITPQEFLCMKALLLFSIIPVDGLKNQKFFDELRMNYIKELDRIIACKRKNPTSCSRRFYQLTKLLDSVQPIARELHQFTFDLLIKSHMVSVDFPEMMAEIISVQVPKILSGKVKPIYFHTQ
UniProt Q02248: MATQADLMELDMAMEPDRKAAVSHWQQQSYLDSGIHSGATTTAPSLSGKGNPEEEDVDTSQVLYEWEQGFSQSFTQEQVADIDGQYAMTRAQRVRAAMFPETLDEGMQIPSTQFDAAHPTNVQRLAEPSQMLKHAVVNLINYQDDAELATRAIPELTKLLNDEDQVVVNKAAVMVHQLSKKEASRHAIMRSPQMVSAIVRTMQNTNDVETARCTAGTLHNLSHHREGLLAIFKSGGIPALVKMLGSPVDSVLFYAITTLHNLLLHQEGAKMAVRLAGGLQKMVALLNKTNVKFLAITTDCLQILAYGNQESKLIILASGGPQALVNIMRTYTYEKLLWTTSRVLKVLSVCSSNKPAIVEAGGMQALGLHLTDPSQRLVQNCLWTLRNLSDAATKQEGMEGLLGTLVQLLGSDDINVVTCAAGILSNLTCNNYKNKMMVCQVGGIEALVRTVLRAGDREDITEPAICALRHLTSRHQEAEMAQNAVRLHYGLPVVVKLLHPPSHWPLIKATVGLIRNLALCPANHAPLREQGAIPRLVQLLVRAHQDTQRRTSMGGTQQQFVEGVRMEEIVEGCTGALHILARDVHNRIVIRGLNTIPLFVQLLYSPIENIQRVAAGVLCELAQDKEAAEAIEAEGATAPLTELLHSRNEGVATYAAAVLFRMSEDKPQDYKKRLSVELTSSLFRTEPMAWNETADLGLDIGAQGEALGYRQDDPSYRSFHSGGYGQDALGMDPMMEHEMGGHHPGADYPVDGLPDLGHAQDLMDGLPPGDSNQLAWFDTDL
UniProt P23475: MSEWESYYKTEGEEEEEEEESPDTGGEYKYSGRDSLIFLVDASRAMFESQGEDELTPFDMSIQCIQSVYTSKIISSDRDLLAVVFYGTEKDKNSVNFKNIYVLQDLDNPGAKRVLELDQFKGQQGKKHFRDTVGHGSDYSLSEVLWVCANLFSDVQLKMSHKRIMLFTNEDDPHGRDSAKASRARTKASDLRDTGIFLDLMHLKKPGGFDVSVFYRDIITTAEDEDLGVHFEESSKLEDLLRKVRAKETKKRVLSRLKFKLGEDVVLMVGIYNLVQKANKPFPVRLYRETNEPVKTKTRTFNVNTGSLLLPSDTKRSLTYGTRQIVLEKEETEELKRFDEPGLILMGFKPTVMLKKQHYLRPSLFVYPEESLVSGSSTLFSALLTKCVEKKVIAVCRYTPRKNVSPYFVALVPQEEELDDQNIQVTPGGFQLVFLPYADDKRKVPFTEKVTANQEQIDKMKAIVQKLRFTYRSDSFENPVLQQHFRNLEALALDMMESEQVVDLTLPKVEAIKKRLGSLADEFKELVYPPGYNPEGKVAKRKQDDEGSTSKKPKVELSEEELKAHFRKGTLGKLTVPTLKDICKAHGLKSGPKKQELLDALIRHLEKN
UniProt P45448: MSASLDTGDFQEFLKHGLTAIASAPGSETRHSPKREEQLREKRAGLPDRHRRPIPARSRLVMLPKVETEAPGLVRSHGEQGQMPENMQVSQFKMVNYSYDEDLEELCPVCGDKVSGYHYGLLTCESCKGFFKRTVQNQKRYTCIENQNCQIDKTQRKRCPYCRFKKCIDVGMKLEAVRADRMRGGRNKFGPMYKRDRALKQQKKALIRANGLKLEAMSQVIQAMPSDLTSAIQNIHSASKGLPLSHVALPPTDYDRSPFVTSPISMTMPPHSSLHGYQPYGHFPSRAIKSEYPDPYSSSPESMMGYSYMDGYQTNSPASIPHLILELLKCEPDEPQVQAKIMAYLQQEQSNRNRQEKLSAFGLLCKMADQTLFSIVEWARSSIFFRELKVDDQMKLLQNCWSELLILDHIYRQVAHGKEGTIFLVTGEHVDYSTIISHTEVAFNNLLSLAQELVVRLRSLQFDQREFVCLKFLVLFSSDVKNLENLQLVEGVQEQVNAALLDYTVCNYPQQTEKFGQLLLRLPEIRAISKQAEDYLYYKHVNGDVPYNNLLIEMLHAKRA
UniProt O70133: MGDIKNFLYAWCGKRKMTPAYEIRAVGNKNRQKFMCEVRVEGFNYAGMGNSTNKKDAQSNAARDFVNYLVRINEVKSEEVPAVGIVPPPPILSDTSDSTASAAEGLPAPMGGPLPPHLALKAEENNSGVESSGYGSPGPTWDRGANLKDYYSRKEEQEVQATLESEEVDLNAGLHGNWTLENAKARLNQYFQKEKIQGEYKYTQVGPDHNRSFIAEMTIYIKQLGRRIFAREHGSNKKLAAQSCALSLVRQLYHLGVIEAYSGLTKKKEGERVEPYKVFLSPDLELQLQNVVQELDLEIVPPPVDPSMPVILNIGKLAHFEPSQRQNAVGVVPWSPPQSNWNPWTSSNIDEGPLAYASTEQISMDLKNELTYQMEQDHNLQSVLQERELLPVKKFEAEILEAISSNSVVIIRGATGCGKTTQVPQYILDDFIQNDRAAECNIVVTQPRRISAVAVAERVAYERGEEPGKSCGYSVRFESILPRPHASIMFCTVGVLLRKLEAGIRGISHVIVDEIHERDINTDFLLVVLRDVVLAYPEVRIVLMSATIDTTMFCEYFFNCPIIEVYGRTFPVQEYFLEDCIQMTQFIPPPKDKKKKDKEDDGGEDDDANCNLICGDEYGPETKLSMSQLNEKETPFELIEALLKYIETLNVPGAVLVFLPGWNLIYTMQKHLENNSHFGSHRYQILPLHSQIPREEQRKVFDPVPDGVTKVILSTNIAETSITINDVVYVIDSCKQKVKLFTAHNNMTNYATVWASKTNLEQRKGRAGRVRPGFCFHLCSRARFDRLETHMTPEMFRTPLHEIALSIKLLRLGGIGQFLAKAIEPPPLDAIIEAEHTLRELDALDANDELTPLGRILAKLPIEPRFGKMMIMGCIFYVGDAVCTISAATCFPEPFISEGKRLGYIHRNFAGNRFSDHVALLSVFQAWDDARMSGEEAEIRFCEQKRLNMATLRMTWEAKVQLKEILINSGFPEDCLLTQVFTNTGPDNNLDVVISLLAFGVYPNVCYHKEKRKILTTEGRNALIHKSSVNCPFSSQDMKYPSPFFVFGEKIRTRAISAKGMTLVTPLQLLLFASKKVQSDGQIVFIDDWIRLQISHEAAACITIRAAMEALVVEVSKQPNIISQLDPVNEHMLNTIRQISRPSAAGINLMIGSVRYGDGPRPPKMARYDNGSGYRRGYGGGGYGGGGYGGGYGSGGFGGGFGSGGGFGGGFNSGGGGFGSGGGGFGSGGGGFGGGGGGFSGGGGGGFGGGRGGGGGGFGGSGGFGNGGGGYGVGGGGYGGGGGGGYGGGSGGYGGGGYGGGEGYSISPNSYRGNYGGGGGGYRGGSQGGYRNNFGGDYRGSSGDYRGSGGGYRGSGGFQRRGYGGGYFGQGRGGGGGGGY
UniProt O08537: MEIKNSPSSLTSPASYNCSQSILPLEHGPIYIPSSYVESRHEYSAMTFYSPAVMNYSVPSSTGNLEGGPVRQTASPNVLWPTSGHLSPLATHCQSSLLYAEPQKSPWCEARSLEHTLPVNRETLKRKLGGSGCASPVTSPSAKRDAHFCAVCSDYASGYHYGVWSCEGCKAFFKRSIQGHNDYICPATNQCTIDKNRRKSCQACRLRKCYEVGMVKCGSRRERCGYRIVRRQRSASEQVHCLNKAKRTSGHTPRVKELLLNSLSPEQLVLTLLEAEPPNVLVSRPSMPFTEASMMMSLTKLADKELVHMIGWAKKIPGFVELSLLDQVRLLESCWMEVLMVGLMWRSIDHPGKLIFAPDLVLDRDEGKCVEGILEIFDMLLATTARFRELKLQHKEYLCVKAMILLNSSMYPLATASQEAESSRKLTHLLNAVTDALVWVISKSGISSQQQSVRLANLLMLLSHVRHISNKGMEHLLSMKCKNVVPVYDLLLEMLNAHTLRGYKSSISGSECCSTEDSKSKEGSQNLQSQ
UniProt P23198: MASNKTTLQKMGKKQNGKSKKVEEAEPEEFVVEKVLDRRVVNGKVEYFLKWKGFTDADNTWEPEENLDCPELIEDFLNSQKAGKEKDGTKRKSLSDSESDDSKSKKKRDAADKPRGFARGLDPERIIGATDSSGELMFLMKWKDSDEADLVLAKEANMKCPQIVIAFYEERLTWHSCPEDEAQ

T1: forkhead box L2 (FOXL2) (mouse (endogenous in mouse ovary)) (UniProt O88470)
T1 sequence: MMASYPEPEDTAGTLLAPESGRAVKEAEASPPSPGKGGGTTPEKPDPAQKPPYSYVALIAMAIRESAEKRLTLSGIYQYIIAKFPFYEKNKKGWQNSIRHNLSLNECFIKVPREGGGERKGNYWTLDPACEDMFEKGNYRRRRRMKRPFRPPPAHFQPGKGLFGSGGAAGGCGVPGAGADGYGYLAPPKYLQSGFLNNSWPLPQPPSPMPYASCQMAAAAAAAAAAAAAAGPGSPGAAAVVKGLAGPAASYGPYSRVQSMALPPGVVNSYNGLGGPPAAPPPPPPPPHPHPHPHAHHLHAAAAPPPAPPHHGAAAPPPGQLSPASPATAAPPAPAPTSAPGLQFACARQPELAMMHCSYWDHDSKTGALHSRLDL

B1: histone deacetylase 6 (HDAC6) (protein, UniProt Q9Z2V5 1-1149)
chain: MTSTGQDSSTRQRKSRHNPQSPLQESSATLKRGGKKCAVPHSSPNLAEVKKKGKMKKLSQPAEEDLVVGLQGLDLNPETRVPVGTGLVFDEQLNDFHCLWDDSFPESPERLHAIREQLILEGLLGRCVSFQARFAEKEELMLVHSLEYIDLMETTQYMNEGELRVLAETYDSVYLHPNSYSCACLATGSVLRLVDALMGAEIRNGMAVIRPPGHHAQHNLMDGYCMFNHLAVAARYAQKKHRIQRVLIVDWDVHHGQGTQFIFDQDPSVLYFSIHRYEHGRFWPHLKASNWSTIGFGQGQGYTINVPWNQTGMRDADYIAAFLHILLPVASEFQPQLVLVAAGFDALHGDPKGEMAATPAGFAHLTHLLMGLAGGKLILSLEGGYNLRALAKGVSASLHTLLGDPCPMLESCVVPCASAQTSIYCTLEALEPFWEVLERSVETQEEDEVEEAVLEEEEEEGGWEATALPMDTWPLLQNRTGLVYDEKMMSHCNLWDNHHPETPQRILRIMCHLEEVGLAARCLILPARPALDSELLTCHSAEYVEHLRTTEKMKTRDLHREGANFDSIYICPSTFACAKLATGAACRLVEAVLSGEVLNGIAVVRPPGHHAEPNAACGFCFFNSVAVAARHAQIIAGRALRILIVDWDVHHGNGTQHIFEDDPSVLYVSLHRYDRGTFFPMGDEGASSQVGRDAGIGFTVNVPWNGPRMGDADYLAAWHRLVLPIAYEFNPELVLISAGFDAAQGDPLGGCQVTPEGYAHLTHLLMGLAGGRIILILEGGYNLASISESMAACTHSLLGDPPPQLTLLRPPQSGALVSISEVIQVHRKYWRSLRLMKMEDKEECSSSRLVIKKLPPTASPVSAKEMTTPKGKVPEESVRKTIAALPGKESTLGQAKSKMAKAVLAQGQSSEQAAKGTTLDLATSKETVGGATTDLWASAAAPENFPNQTTSVEALGETEPTPPASHTNKQTTGASPLQGVTAQQSLQLGVLSTLELSREAEEAHDSEEGLLGEAAGGQDMNSLMLTQGFGDFNTQDVFYAVTPLSWCPHLMAVCPIPAAGLDVSQPCKTCGTVQENWVCLTCYQVYCSRYVNAHMVCHHEASEHPLVLSCVDLSTWCYVCQAYVHHEDLQDVKNAAHQNKFGEDMPHSH
B2: CXXC5 (protein, UniProt Q91WA4 1-317)
chain: MSSLGGGSQDAGGSSSSSNTNSSSGSGQKAGGTDKSTAVAATTAPTSVADDAPPPERRNKSGIISEPLNKSLRRSRPLSHYSSFGSSGGGGSMMGVESADKAAAAAASLLANGHDLAAAMAVDKSNPTSKHKSGAVASLLSKAERATELAAEGQLTLQQFAQSTEMLKRVVQEHLPLMSEAGAGLPDMEAVAGAEALNGQSDFPYLGAFPINPGLFIMTPAGVFLAESALHMAGLAEYPMQGELASAISSGKKKRKRCGMCAPCRRRINCEQCSSCRNRKTGHQICKFRKCEELKKKPSAALEKVMLPSGAAFRWFQ
B3: SRRT (protein, UniProt Q99MR6 1-875)
chain: MGDSDDEYDRRRRDKFRRERSDYDRSRERDERRRGDDWNDREWDRGRERRSRGEYRDYDRNRRERFSPPRHELSPPQKRMRRDWDEHSSDPYHSGYDMPYAGGGGGPTYGPPQPWGHPDVHIMQHHVLPIQARLGSIAEIDLGVPPPIMKSFKEFLLSLDDSVDETEAVKRYNDYKLDFRRQQMQDFFLAHKDEEWFRSKYHPDEVGKRRQEARGALQNRLKVFLSLMESGWFDNLLLDIDKADAIVKMLDAAVIKMEGGTENDLRILEQEEEEEQAGKTGEASKKEEARAGPALGEGERKANDKDEKKEDGKQAENDSSNDDKTKKSEGDGDKEEKKEEAEKEAKKSKKRNRKQSGDDSFDEGSVSESESESEGGQAEEEKEEAEEALKEKEKPKEEEKEKPKDAAGLECKPRPLHKTCSLFMRNIAPNISRAEIISLCKRYPGFMRVALSEPQPERRFFRRGWVTFDRSVNIKEICWNLQNIRLRECELSPGVNRDLTRRVRNINGITQHKQIVRNDIKLAAKLIHTLDDRTQLWASEPGTPPVPTSLPSQNPILKNITDYLIEEVSAEEEELLGSSGGPPPEEPPKEGNPAEINVERDEKLIKVLDKLLLYLRIVHSLDYYNTCEYPNEDEMPNRCGIIHVRGPMPPNRISHGEVLEWQKTFEEKLTPLLSVRESLSEEEAQKMGRKDPEQEVEKFVTSNTQELGKDKWLCPLSGKKFKGPEFVRKHIFNKHAEKIEEVKKEVAFFNNFLTDAKRPALPEIKPAQPPGPAQILPPGLTPGLPYPHQTPQGLMPYGQPRPPILGYGAGAVRPAVPTGGPPYPHAPYGAGRGNYDAFRGQGGYPGKPRNRMVRGDPRAIVEYRDLDAPDDVDFF
B4: SF3A1 (protein, UniProt Q8K4Z5 1-791)
chain: MQAGPVQAVPPPPPVATESKQPIEEEASSKEDPTPSKPVVGIIYPPPEVRNIVDKTASFVARNGPEFEARIRQNEINNPKFNFLNPNDPYHAYYRHKVSEFKEGKAQEPSAAIPKVMQQQQQATQQQLPQKVQAQVIQETIVPKEPPPEFEFIADPPSISAFDLDVVKLTAQFVARNGRQFLTQLMQKEQRNYQFDFLRPQHSLFNYFTKLVEQYTKILIPPKGLFSKLKKEAENPREVLDQVCYRVEWAKFQERERKKEEEEKEKERVAYAQIDWHDFVVVETVDFQPNEQGNFPPPTTPEELGARILIQERYEKFGESEEVEMEVESDEEDQEKAEETPSQLDQDTQVQDMDEGSDDEEEGQKVPPPPETPMPPPLPPTPDQVIVRKDYDPKASKPLPPAPAPDEYLVSPITGEKIPASKMQEHMRIGLLDPRWLEQRDRSIREKQSDDEVYAPGLDIESSLKQLAERRTDIFGVEETAIGKKIGEEEIQKPEEKVTWDGHSGSMARTQQAAQANITLQEQIEAIHKAKGLVPEDDTKEKIGPSKPNEIPQQPPPPSSATNIPSSAPPITSVPRPPAMPPPVRTTVVSAVPVMPRPPMASVVRLPPGSVIAPMPPIIHAPRINVVPMPPAAPPIMAPRPPPMIVPTAFVPAPPVAPVPAPAPMPPVHPPPPMEDEPPSKKLKTEDSLMPEEEFLRRNKGPVSIKVQVPNMQDKTEWKLNGQGLVFTLPLTDQVSVIKVKIHEATGMPAGKQKLQYEGIFIKDSNSLAYYNMASGAVIHLALKERGGRKK
B5: WTAP1, a Wilms’ tumor 1–associating protein (protein, UniProt Q9ER69 1-396)
chain: MTNEEPLPKKVRLSETDFKVMARDELILRWKQYEAYVQALEGKYTDLNSNDVTGLRESEEKLKQQQQESARRENILVMRLATKEQEMQECTTQIQYLKQVQQPSVAQLRSTMVDPAINLFFLKMKGELEQTKDKLEQAQNELSAWKFTPDSQTGKKLMAKCRMLIQENQELGRQLSQGRIAQLEAELALQKKYSEELKSSQDELNDFIIQLDEEVEGMQSTILVLQQQLKETRQQLAQYQQQQSQASAPSTSRTTSSEPVDQAEVTSKDCSRLANGPSNGSSSRQRTSGSGFHREGSTPEDDFPSSSGNGNKASNSSEERTGRGGSSYINPLSAGYESVDSPTGSENSLTHHSNDTDSSHDPQEEKAVSGKGNRTVGSRHVQNGLDSSVNVQGAVL
B6: TCF21 (protein, UniProt O35437 1-179)
chain: MSTGSLSDVEDLQEVEMLDCDSLKVDSNKEFGTSNESTEEGSNCENGSPQKGRGGLGKRRKAPTKKSPLSGVSQEGKQVQRNAANARERARMRVLSKAFSRLKTTLPWVPPDTKLSKLDTLRLASSYIAHLRQILANDKYENGYIHPVNLTWPFMVAGKPENDLKEVVTANRLCGTTAS
B7: ATF1 (protein, UniProt P81269 1-269)
chain: MEDSHKSNTTETASQPGSTVAGPHVSQIVHQVSSLSESEESQDSSDSIGSSQKAHGILARRPSYRKILKDLSSEDTRGRKGEGENPSISAITSMSVPAPIYQTSSGQYIAIAPNGALQLASPSTDGVQALQTLTMTNSSSTQQGTILQYAQTSDGQQILVPSNQVVVQTASGDMQTYQIRTTPSATSLPQTVVMTSPVTLASQTTKTDDPQLRREIRLMKNREAARECRRKKKEYVKCLENRVAVLENQNKTLIEELKTLKDLYSHKSV

Each molecule was assayed against T1, forkhead box L2 (FOXL2) (mouse (endogenous in mouse ovary)) (assay: affinity purification with mass spectrometry; ChIP-SICAP: formaldehyde-fixed (1.5%, 15 min), sonicated chromatin of whole mouse ovaries at E14.5, 1W and 8W; overnight immunoprecipitation at 4°C with a FOXL2 antibody, protein G Dynabeads, DNA biotinylated and captured on streptavidin beads, bound proteins digested and identified by mass spectrometry; enrichment over a no-antibody control, n = 2; detects proteins colocalizing with FOXL2 on the same chromatin fragments).

Q: How did the binding turn out when B1 was run?
A: Its binding is “binds”.

Q: How did the binding turn out when B2 was run?
A: Its binding is “binds”.

Q: How did the binding turn out when B3 was run?
A: The binding was “binds”.

Q: For B4, which binding is on record?
A: Its binding is “binds”.

Q: For B5, which binding is on record?
A: The binding was “binds”.

Q: For B6, which binding is on record?
A: The binding was “binds”.

Q: Which binding does the source give for B7 here?
A: Its binding is “binds”.

Biological target: T1, forkhead box L2 (FOXL2) (mouse (endogenous in mouse ovary))
Assay: as above
Remark: another data set of the same source

Q: How did the binding turn out when HDAC1 (from UniProt O09106 1-482) was run?
A: The binding was “binds”.

Q: “Wilms’ tumor suppressor (WT1) (from UniProt P22561 1-449)” was tested. Which binding did it give?
A: Its binding is “binds”.

Q: For RBMX (from UniProt Q9WV02 1-391), which binding is on record?
A: The binding was “binds”.

Q: “signal transducer and activator of transcription 3 (STAT3) (from UniProt P42227 1-770)” was tested. Which binding did it give?
A: Its binding is “binds”.

Q: For “SWI/SNF-related matrix-associated actin-dependent regulator of chromatin subfamily D member 2 (SMARCD2) (from UniProt Q99JR8 1-531)”, which binding is on record?
A: The binding was “binds”.

Q: “Androgen receptor (AR) (from UniProt P19091 1-899)” was tested. Which binding did it give?
A: The binding was “binds”.

Q: Which binding does the source give for “CTNNB1 (β-catenin) (from UniProt Q02248 1-781)” here?
A: Its binding is “binds”.

Q: Which binding does the source give for DDX17 (from UniProt Q501J6 1-650) here?
A: Its binding is “binds”.

Q: “casein kinase I isoform alpha (CSNK1A1) (from UniProt Q8BK63 1-337)” was tested. Which binding did it give?
A: The binding was “binds”.

Q: Which binding does the source give for “x-ray repair cross complementing 6 (XRCC6) (from UniProt P23475 1-608)” here?
A: The binding was “binds”.

Q: For “nuclear receptor subfamily 5 group A member 2 (NR5A2) (from UniProt P45448 1-560)”, which binding is on record?
A: The binding was “binds”.

Q: With “DNA helicase DHX9 (from UniProt O70133 1-1380)” as the molecule, how does the binding read?
A: Its binding is “binds”.

Q: Which binding does the source give for SRSF1 (from UniProt Q6PDM2 1-248) here?
A: Its binding is “binds”.

Q: For GATA4 (from UniProt Q08369 1-441), which binding is on record?
A: The binding was “binds”.

Q: For “estrogen receptor 2 (ESR2) (from UniProt O08537 1-530)”, which binding is on record?
A: The binding was “binds”.

Q: Which binding does the source give for CBX3 (from UniProt P23198 1-183) here?
A: The binding was “binds”.
